Test results: publication PMC7819943, “Rice protein-binding microarrays: a tool to detect cis-acting elements near promoter regions in rice”
The other results are listed elsewhere or left out.

The chains behind the UniProt entries cited, without tags or fusion partners.
UniProt Q0JBA9, entry or part of it: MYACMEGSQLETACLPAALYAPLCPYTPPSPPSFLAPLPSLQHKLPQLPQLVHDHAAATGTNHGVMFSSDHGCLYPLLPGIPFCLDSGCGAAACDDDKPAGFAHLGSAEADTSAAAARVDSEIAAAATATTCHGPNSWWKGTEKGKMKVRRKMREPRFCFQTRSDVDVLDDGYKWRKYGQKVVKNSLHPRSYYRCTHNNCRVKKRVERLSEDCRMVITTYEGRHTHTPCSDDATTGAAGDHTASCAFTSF

The sequences below were run against OsWRKY34 (Oryza sativa, UniProt Q0JBA9 1-250) (assay: protein-binding microarray (RPBM); PBS, 2% BSA, 51.3 ng/ul salmon testes DNA, 50 uM zinc acetate, 200 nM TF, 25 C, 1 h; high values mean tight binding). Details: protein: recombinant; tags: N-terminal polyhistidine and DsRed monomer fusion (pET32a); label: CyDye5-dUTP incorporated in the synthesized complementary strand; 3' TTTTT single-stranded linker to array surface; dsDNA, one strand shown.
Summary of the method: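 The binding signal is fluorescence intensity per array feature (arbitrary units). Readings came from an Axon 4000B scanner after a washed, 2% BSA-blocked, double-stranded custom Agilent array had been incubated for 1 h at 25 °C with 200 nM protein and 50 µM zinc acetate. The protein was a Ni–NTA-purified transcription factor fused N-terminally to polyhistidine and DsRed, expressed in E. coli BL21-CodonPlus.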

Row | Sequence | binding signal
1 | TGCTTGAAGCTCAATGGTCTGGTCTGCAGTTGGCTATCCACGGAGTCACCTAGTGCAG | 9430 fluorescence intensity (a.u.)
2 | CGTTTTATTCCGCGTCTTTCCGGTCTCCTTTCCGAGTCGCCGGAGTCACCTAGTGCAG | 8450 fluorescence intensity (a.u.)
3 | AACCACGATAAATTCACCGTCCCTCAACTACTCTCAGATACGGAGTCACCTAGTGCAG | 8790 fluorescence intensity (a.u.)
4 | TTCCTTCTGGCTATTGTTCTTTTTATGTTTGTTGGTTGTTCGGAGTCACCTAGTGCAG | 9270 fluorescence intensity (a.u.)
5 | TTCTTTTTTCACCCTTTTGAGGTATATTTTTGCTCTTACACGGAGTCACCTAGTGCAG | 8860 fluorescence intensity (a.u.)
6 | TCCTGGGGTTGGTTGGTTGGTTGGGTTATATATCTACCAACGGAGTCACCTAGTGCAG | 14200 fluorescence intensity (a.u.)
7 | CACCCATCTTCTTCTGTAATTCAAGTTTCGACTGTGCATTCGGAGTCACCTAGTGCAG | 10400 fluorescence intensity (a.u.)
8 | TATATATTATACCATTAATGACTGATCCTACCCTCTCATACGGAGTCACCTAGTGCAG | 10700 fluorescence intensity (a.u.)
9 | GAATCACAACTGAAACGTACTCCTACCTTTCAACTTTCATCGGAGTCACCTAGTGCAG | 8410 fluorescence intensity (a.u.)
10 | AATATCTTGGCCGAATTTTTTGGTTTTTCTCAAATTTTTACGGAGTCACCTAGTGCAG | 8090 fluorescence intensity (a.u.)
11 | ATACTCCTTTTTCTCATGCATAATGCTAATTGTTCGTACACGGAGTCACCTAGTGCAG | 8330 fluorescence intensity (a.u.)
12 | TCCACTCCGCTCAACCTTCGCGATTGATTCTTGGATTTCTCGGAGTCACCTAGTGCAG | 14400 fluorescence intensity (a.u.)
13 | ACTGTGTTACCTAACAAACAATGTTTTGAGCACCAATCACCGGAGTCACCTAGTGCAG | 8330 fluorescence intensity (a.u.)
14 | TCACTAGGTGTTGTTCTTTTTCAGATTATTCATCAGATTACGGAGTCACCTAGTGCAG | 9520 fluorescence intensity (a.u.)
15 | AGTGAGAAAATAAATAGTGTCCGTACCGGTTCTTTTTCTTCGGAGTCACCTAGTGCAG | 8800 fluorescence intensity (a.u.)
16 | AATTTCCTTGTAATTGTTTATATGTCCCGCATTTCAAATACGGAGTCACCTAGTGCAG | 8090 fluorescence intensity (a.u.)
17 | ATACCGTTTTATTTTGTAATTTACTCTCATCTTTATATAGCGGAGTCACCTAGTGCAG | 8790 fluorescence intensity (a.u.)
18 | GATTCTCACCAGTTGGCTACTCGCTATTTGCTTATTAGAACGGAGTCACCTAGTGCAG | 8060 fluorescence intensity (a.u.)
19 | ATTTGTATGGGTGCTAGCCGTGTAATTATGCGGTCCACTACGGAGTCACCTAGTGCAG | 10000 fluorescence intensity (a.u.)
20 | GCGCGAAAAAGTCAACAGTGCCACTCATCACCCGACACACCGGAGTCACCTAGTGCAG | 8920 fluorescence intensity (a.u.)
21 | AATTCCGGGTTTGGCGTGGGTTGCTCTGTGGATACCCATTCGGAGTCACCTAGTGCAG | 8210 fluorescence intensity (a.u.)

Row | Sequence | binding signal
22 | TGCTTAACACCACGCTTCTGGAAATCTGGATAAACATTTACGGAGTCACCTAGTGCAG | 8290 fluorescence intensity (a.u.)
23 | GATAGGAGTATATGGCATTTCACGCTCAGTTAGCATTCACCGGAGTCACCTAGTGCAG | 11400 fluorescence intensity (a.u.)
24 | GCTCGTATAATATGTTTGATATGTCATTTTAAAGTTTAATCGGAGTCACCTAGTGCAG | 9160 fluorescence intensity (a.u.)
25 | GATGTTTATAAATAGCTTATAGTTTGCTATCTACTGTTTTCGGAGTCACCTAGTGCAG | 9800 fluorescence intensity (a.u.)
26 | CGTCCGGTCGCATCCCCTGGCCTGGCCGTCGCCGGCCCGCCGGAGTCACCTAGTGCAG | 9050 fluorescence intensity (a.u.)
27 | CAAATGAACCACTTCTTTATATTCGATTCCTCATTGCTTTCGGAGTCACCTAGTGCAG | 8390 fluorescence intensity (a.u.)
28 | CCCTCGTTCTCGTTCTTATCTCCAACACCTCTACTACTACCGGAGTCACCTAGTGCAG | 8990 fluorescence intensity (a.u.)
29 | ACCTTATTGATCGTCCATGTTTTCCGGTGAATTAAACCCACGGAGTCACCTAGTGCAG | 8720 fluorescence intensity (a.u.)
30 | ACTTTTTCTGTGACAGACTGATATATTTATTTCTTAATTCCGGAGTCACCTAGTGCAG | 12400 fluorescence intensity (a.u.)
31 | ATTGGTAGCTACGAGCCTACGACCTCGCTGCCTCGTATCGCGGAGTCACCTAGTGCAG | 8820 fluorescence intensity (a.u.)
32 | GTTCTTTTTTACGTAAATTGGTTGAAGTCTTCAAAATCTCCGGAGTCACCTAGTGCAG | 9010 fluorescence intensity (a.u.)
33 | ACAGGAGGTGTACCATAGTTCGTGTTTTTTTCTAGTTTACCGGAGTCACCTAGTGCAG | 11400 fluorescence intensity (a.u.)
34 | GAATTATTTTGATATAGATGTATTTAGCGTACCATTTTACCGGAGTCACCTAGTGCAG | 9400 fluorescence intensity (a.u.)
35 | GTTTTCAGGCTTTTTCAGGTTTCTGTCCATTGTTTTTCTACGGAGTCACCTAGTGCAG | 11100 fluorescence intensity (a.u.)
36 | TCTGTCTCCACATGATACCATACGCATGGCACACTTGATACGGAGTCACCTAGTGCAG | 8790 fluorescence intensity (a.u.)
37 | CACCGCACCTACACCCACTCACTCTCACCATCCATCGGGACGGAGTCACCTAGTGCAG | 9070 fluorescence intensity (a.u.)
38 | CGCCTGACGACGCAACGCCAATGCCAAGAACCACCACCACCGGAGTCACCTAGTGCAG | 8220 fluorescence intensity (a.u.)
39 | CTAACTGCATCCACCATTCCACCGTCATCCTCGCCGTCCCCGGAGTCACCTAGTGCAG | 11800 fluorescence intensity (a.u.)
40 | GCCGTCTGCCTCCCACCACTTGACAACAACAAAGTCTCTCCGGAGTCACCTAGTGCAG | 10300 fluorescence intensity (a.u.)
41 | TGTTTGTGGATTATAAAGCGAGCACTACATTGTTTTGTATCGGAGTCACCTAGTGCAG | 10500 fluorescence intensity (a.u.)
42 | TGTTTGTGGGGTGAGACAAGTGGAATAAGAGTGCTACTATCGGAGTCACCTAGTGCAG | 8330 fluorescence intensity (a.u.)

Given field by field: part of the list above.
ACTGTGTTACCTAACAAACAATGTTTTGAGCACCAATCACCGGAGTCACCTAGTGCAG
  binding signal = 8330 fluorescence intensity (a.u.)
TCACTAGGTGTTGTTCTTTTTCAGATTATTCATCAGATTACGGAGTCACCTAGTGCAG
  binding signal = 9520 fluorescence intensity (a.u.)
